Experimental data reported in patent US20200017490A1, “Novel Mesoionic Insecticidal Compound” (Nippon Kayaku Kabushiki Kaisha, priority 2016, published 2020).
Where two headings read alike, the source gives them in different places. Some of these results come from one statement about several compounds together. For some of these results: For at least one compound, name, drawing or mass did not settle the structure.

How the values were obtained:
Type in all cases: in vivo
[1] = tested on: Southern Yellow thrips (Thrips palmi); settings: 200 ppm, foliar spraying on cucumber leaf, first instar larvae, 3 days after the treatment, 25° C.
Procedure: Biological Test Example 5: Test (Foliar Spraying) for Controlling Southern Yellow thrips (Thrips palmi)
A cucumber leaf cut to a diameter of 1.5 cm was placed on cotton wool moistened with water. The diluent of the test compounds diluted with water to 200 ppm in an amount of 2 mL was sprayed onto the cucumber leaves with a spray tower. After air-drying, 5 larvae of southern yellow thrips in the first instar larva were released there and placed with cotton wool in a plastic cup, which was covered with a lid and kept in a chamber at a constant temperature of 25° C. for rearing.

[2] = tested on: Brown Planthopper (Nilaparvata lugens); settings: 200 ppm, rice seedling foliage dipping, third instar larvae, 5 days after the treatment, 25° C.
Procedure: Biological Test Example 3: Test (Foliage Dipping) for Controlling Brown Planthopper (Nilaparvata lugens)
Ten sampled rice seedlings were dipped in the chemical solution of the test compounds diluted with water to 200 ppm in an amount of 20 mL and air-dried. After air-drying, the rice seedlings held with urethane in a glass cylinder having an inner diameter of 4.5 cm and a length of 14 cm were set up in a plastic cup containing 40 mL of water. Larvae of brown planthoppers in the third instar larva were released in the glass cylinder. The cylinder was covered with a lid of medicine paper and kept in a chamber at a constant temperature of 25° C. for rearing.

[3] = tested on: Cotton Aphid (Aphis gossypii); settings: 200 ppm, foliar spraying on cucumber leaf, cotton aphid offspring, 5 days after the treatment, 25° C.
Procedure: Biological Test Example 1: Test (Foliar Spraying) for Controlling Cotton Aphid (Aphis gossypii)
A cucumber leaf cut to a diameter of 3.5 cm was placed on cotton wool moistened with water. Two adult cotton aphids were released there for offspring for 24 hours and the adult insects were then removed. The diluent of the test compounds diluted with water to 200 ppm in an amount of 2 mL was sprayed onto the cucumber leaves with a spray tower. After air-drying, the sample with cotton wool was placed in a plastic cup, which was covered with a lid and kept in a chamber at a constant temperature of 25° C. for rearing.

[4] = tested on: Brown Planthopper (Nilaparvata lugens); settings: 0.8 ppm, rice seedling root dipping, third instar larvae released after 2 days, 5 days after the treatment, 25° C.
Procedure: Biological Test Example 4: Test (Root Dipping) for Controlling Brown Planthopper (Nilaparvata lugens)
Ten sampled rice seedlings held with urethane in a glass cylinder having an inner diameter of 4.5 cm and a length of 14 cm were set up in a plastic cup containing 40 mL of chemical solution diluted with water to 0.8 ppm. After 2 days, 10 larvae of brown planthoppers in the third instar larva were released in the glass cylinder. The glass cylinder was covered with a lid of medicine paper and kept in a chamber at a constant temperature of 25° C. for rearing.

SMILES	mortality [1] [%]	mortality [2] [%]	mortality [3] [%]	mortality [4] [%]
CCCON=CCC[n+]1c([O-])c(-c2cccc(C(F)(F)F)c2)c(=O)n2ccccc21 (mixture of isomers) [Compound A-2]	≥ 80	≥ 80	–	–
CSCCON=CCC[n+]1c([O-])c(-c2cccc(C(F)(F)F)c2)c(=O)n2ccccc21 (mixture of isomers) [Compound A-22]	≥ 80	≥ 80	–	–
O=c1c(-c2cccc(C(F)(F)F)c2)c([O-])[n+](CCC=NOCC(Cl)=CCl)c2ccccn12 [Compound E-8]	≥ 80	–	≥ 80	–
COc1cccc(-c2c([O-])[n+](CCC=NOC3CCCO3)c3ccccn3c2=O)c1 (stereo not shown) [Compound G-7]	≥ 80	≥ 80	–	–
O=c1c(-c2cccc(C(F)(F)F)c2)c([O-])[n+](CCC=NOCc2ccc(Cl)nc2)c2ccccn12 [Compound J-2]	–	≥ 80	–	≥ 80
